Results as given in PubChem BioAssay AID1347076 (National Center for Advancing Translational Sciences (NCATS), 2019).
The whole screen tested about 400,000 compounds, of which about 13,000 (3.2%) were called active. Inconclusive results, whose numbers are uncertain, are shown with a selection of clear calls. Calls come from the whole dose curve; as a rule, active = well fitted cell-killing curve with a large enough effect; inconclusive = small, poorly fitted or top-dose-only effect, or effect the other way; inactive = flat fitted curve, though single readings scatter. Potencies of inconclusive entries are doubtful fits and often do not repeat.
% is set by controls: 0 for no effect and ±100 for the full control effect; potency is the fitted concentration of half-maximal effect.

Test: qHTS assay for MDR1-selective chemotherapeutics: Primary screen using the drug-selected MDR subline cells KB-V1; note: nearly all actives have a fitted effect of over 60% in size
Conditions: KB-V1 MDR cells viability, CellTiter-Glo, 72 h; activity change, negative = cytotoxicity: at 46.1 µM (top of the series)
Summary of the method: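 Cytotoxicity via CellTiter-Glo luminescence after 72 h compound exposure at 37 degrees C. Cells: drug-selected KB-V1 line, DMEM phenol-red free plus 10% FBS. Compounds tested at multiple concentrations; normalized data fitted to concentration-effect curves.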
With CC(C)CCNc1nc(N)c([N+](=O)[O-])c(N2CCCCCC2)n1 the Potency was inconclusive: 23.1 µM [cytotoxic, partial curve, poor fit].
In the case of CCOC(=O)c1cc2occc2n1CC(=O)NC1CCCCC1C (centres undefined), the Potency is reported as inconclusive: 29.1 µM [cytotoxic, single point].
In the case of CSc1nnc2c(n1)OC=Nc1ccccc1-2, the Potency is reported as “inactive”.
With Cc1[nH]n(-c2cccc3ccccc23)c(=O)c1/C=N/NC(=O)c1cccc([N+](=O)[O-])c1 the Potency was active: 3.26 µM.
For COc1ccc([C@H]2C[C@@H](n3cc(C4CC4)nn3)[C@H](O)CN2C(=O)c2cccs2)cc1, the activity change, negative = cytotoxicity was inconclusive: 14.5%.
In the case of O=C1c2cccc3cccc(c23)C(=O)N1CCCCCc1n[nH]c(=S)o1, the Potency is reported as inconclusive: 13 µM [cytotoxic, partial curve, poor fit].
With CC(C)CC(=O)N1CCN(Cc2ccc(Cl)cc2)CC1 the Potency was “inactive”.
For CCOCCCNC(=O)c1cn(CC)c2ccc(S(=O)(=O)N3CCOCC3)cc2c1=O, the Potency was inconclusive: 0.0366 µM [rising, full curve].
In the case of CC(C)Cn1c(N)c(C(=O)CSc2ccccc2)c(=O)n(C)c1=O, the Potency is reported as inconclusive: 3.26 µM [cytotoxic, full curve, poor fit].
For O=C(Cn1c(=O)oc2cc(S(=O)(=O)N3CCCC3)ccc21)N1CCN(c2ccccn2)CC1, the Potency was inconclusive: 8.2 µM [cytotoxic, partial curve].
With CC12CCC(C(=O)N3CCc4ccccc43)(CC1=O)C2(C)C (centres undefined) the Potency was inconclusive: 2.91 µM [cytotoxic, full curve].
For CCc1ccc(C(C)NC(=O)/C=C/c2ccc(Br)cc2)cc1 (centres undefined), the Potency was inconclusive: 20.6 µM [cytotoxic, single point].
In the case of CC1(C(=O)NS(=O)(=O)c2ccc(C#N)cc2)CCN1C(=O)Cc1cccc2ccccc12 (centres undefined), the Potency is reported as “inactive”.
For C/C(=N/NC(=O)CN1CCN(S(=O)(=O)c2ccc(Br)cc2)CC1)c1ccco1, the Potency was inconclusive: 8.2 µM [cytotoxic, partial curve].
With O=C(O)/C=C/C(=O)Nc1ccc2nccnc2c1 the Potency was “inactive”.
For CN1CCN(c2nnc(-c3ccc(F)cc3)c3ccccc23)CC1, the Potency was inconclusive: 29.1 µM [rising, single point].
With COc1ccccc1NS(=O)(=O)c1cc(C(=O)NC2CC(C)(C)NC(C)(C)C2)ccc1Cl the Potency was inconclusive: 20.6 µM [rising, single point].
With COc1ccc(N2CCN(C(=O)CCC(=O)N3CCOc4ccc(C)cc43)CC2)cc1 the Potency was “inactive”.
For COc1ccc(C(=O)Nc2ccncc2)cc1OC, the Potency was inconclusive: 16.4 µM [cytotoxic, single point].
In the case of O=C(CN1CCCCC1)Nc1ccc(N2CCCCCC2)cc1, the Potency is reported as inconclusive: 23.1 µM [rising, single point].
In the case of COc1ccc(OCCSc2nc(-c3ccccc3)cc(=O)[nH]2)cc1, the Potency is reported as inconclusive: 5.8 µM [rising, partial curve, poor fit].
In the case of CN(c1ccc(C(=O)Nc2ccccc2C(=O)N2CCCC2)cc1)S(C)(=O)=O, the Potency is reported as inconclusive: 16.4 µM [cytotoxic, single point].
With CCCOC(=O)c1[nH]c2c(c1C)C(=O)CC(c1cccs1)C2 (centres undefined) the Potency was inconclusive: 0.366 µM [cytotoxic, partial curve, poor fit].
For CCn1c(SCC(=O)N2CCCc3ccccc32)nnc1-c1cccs1, the Potency was inconclusive: 29.1 µM [cytotoxic, partial curve, poor fit].
In the case of Cc1ccc(CNC(=O)C2CCN(S(=O)(=O)c3ccc4nc5c(c(C(=O)O)c4c3)CC(C)CC5)CC2)cc1 (centres undefined), the Potency is reported as inconclusive: 2.59 µM [rising, partial curve].
For OC(CNCCc1ccc(C(F)(F)F)cc1)COc1cccc2ccccc12 (centres undefined), the Potency was inconclusive: 29.1 µM [rising, single point].
With CCCN1CCC(=O)N([C@H](CN=[N+]=[N-])CC(C)C)CC1 the Potency was inconclusive: 13 µM [rising, single point].
With C[N+]1(CC(=O)c2ccc(Cl)c(Cl)c2)CCOCC1 the Potency was “inactive”.
With C=CCn1c(SCC(=O)c2c(N)n(CCC)c(=O)n(C)c2=O)nc2sc(CC)cc2c1=O the Potency was inconclusive: 0.326 µM [cytotoxic, full curve].
For CNC(=O)c1ccc(Nc2nnc(C)c3ccccc23)cc1, the Potency was inconclusive: 5.17 µM [rising, partial curve].
With CCOc1c(Br)cc(/C=N\NC(=O)c2ccccc2)cc1OC the Potency was inconclusive: 18.4 µM [cytotoxic, single point].
For C/C(=N\NC(=S)NCc1ccccc1)c1cccs1, the Potency was inconclusive: 32.6 µM [cytotoxic, single point].
For C/C(=N\N=C(/N)c1nonc1N)c1ccc2c(c1)OCO2, the Potency was active: 1.46 µM.
In the case of COC(=O)[C@@]12C[C@@H](CC(=O)N3CCCC3)C(=O)N(Cc3ccc4c(c3)OCO4)C1=CCC(C)(C)C2, the Potency is reported as inconclusive: 5.8 µM [cytotoxic, partial curve].
With CC(=O)c1ccc(NS(=O)(=O)c2ccc(Br)s2)cc1 the Potency was “inactive”.
In the case of CCCN(CC(=O)Nc1cc(Cl)ccc1Cl)C(=O)/C=C/c1ccco1, the Potency is reported as inconclusive: 9.2 µM [cytotoxic, partial curve].
With Cc1ccc(-n2c(C)cc(C=C3C(=O)CC(C)(C)CC3=O)c2C)cc1 the Potency was inconclusive: 18.4 µM [cytotoxic, partial curve, poor fit].
In the case of Cc1cc(S(=O)(=O)Nc2ccc(C(=O)N3CCN(C(=O)c4ccco4)CC3)cc2)ccc1F, the Potency is reported as “inactive”.
For CCOC(=O)c1ccc(NC(=S)NCCc2ccccc2F)cc1, the Potency was inconclusive: 23.1 µM [cytotoxic, partial curve, poor fit].
With Cc1onc(-c2ccccc2Cl)c1C(=O)OCC(=O)N1CCC(C)CC1 the Potency was “inactive”.
For CCOc1ccc(N2CC(O)=C(c3ccccc3)C2=N)cc1, the Potency was inconclusive: 2.91 µM [rising, partial curve, poor fit].
In the case of COc1cccc(/C=C/c2nc(C#N)c(NC3CCCCC3)o2)c1, the Potency is reported as “inactive”.
For O=C(Nc1ccc(F)cc1)Nc1cccnc1Cl, the Potency was inconclusive: 16.4 µM [cytotoxic, partial curve, poor fit].
With COc1ccc(-c2cnc3c(NC=O)cc(-c4ccccc4)cn23)cc1OC the Potency was active: 1.64 µM.
For COc1ccc(-n2nc(C(=O)NCC(=O)N3CCN(c4cccc(Cl)c4)CC3)c3ccccc3c2=O)c(OC)c1, the Potency was active: 11.6 µM.
For O=CNC1c2ccccc2CCc2ccccc21, the Potency was inconclusive: 23.1 µM [cytotoxic, single point].
In the case of O=c1[nH]c(N/N=C\c2ccc3c(c2)OCO3)nc2ccccc12, the Potency is reported as “inactive”.
For CCNC(=S)Nc1cc(OC)c(NC(=O)c2ccco2)cc1OC, the Potency was inconclusive: 18.4 µM [rising, partial curve, poor fit].
For N=c1c2c(-c3ccccc3)c(-c3ccccc3)n(Cc3ccco3)c2ncn1CCN1CCOCC1, the Potency was inconclusive: 20.6 µM [cytotoxic, single point].
In the case of O=C1NC[C@@H](CCCCN2CCN(Cc3ccccc3)C(=O)C2=O)N(CCC2CCCCC2)C1=O, the Potency is reported as inconclusive: 5.8 µM [rising, partial curve, poor fit].
With CCOC(=O)CC(N)c1ccc(OC)cc1 (centres undefined) the Potency was inconclusive: 20.6 µM [rising, partial curve, poor fit].
In the case of CSCC[C@H](NC(=O)OC(C)(C)C)C(=O)N/N=C/c1cc2ccc(C)cc2nc1Cl, the Potency is reported as inconclusive: 9.2 µM [cytotoxic, partial curve, poor fit].
For O=C(NCc1ccco1)c1cc2sccc2n1Cc1ccccc1, the Potency was active: 16.4 µM.
For COc1ccccc1N(C(=O)CCl)c1cn(C(C)=O)c2ccccc12, the Potency was active: 14.6 µM.
With COc1ccc(Nc2c(-c3ccc(OC)cc3)nc3cnccn23)cc1 the Potency was inconclusive: 9.2 µM [cytotoxic, partial curve, poor fit].
For Cc1nnc(SCC(=O)NC2(C#N)CCCCC2)n1N, the Potency was “inactive”.
With Cc1cc(=O)oc2c(C(=O)/C=C/c3ccccc3)c(O)ccc12 the Potency was inconclusive: 2.31 µM [cytotoxic, partial curve, poor fit].
With CCOc1ccc(Nc2cc(=O)oc3ccccc23)cc1 the Potency was active: 13 µM.
With Cc1ccc(N2C(=O)C(CC(=O)Nc3cccc(F)c3)N(CCc3ccccc3F)C2=O)cc1 (centres undefined) the Potency was “inactive”.
For Cc1c(NC(=O)Nc2ccccc2)c(=O)n(-c2ccccc2)n1C, the Potency was inconclusive: 29.1 µM [rising, single point].
For Cc1ccc2c(c1)cc1c(=O)[nH]ncn12, the Potency was inconclusive: 23.1 µM [cytotoxic, single point].
For Cc1ccc(NC(=O)Cn2nnc(-c3ccccc3)n2)c(C)c1, the Potency was “inactive”.
With CCOC(=O)C1CCCN(C(=O)c2ccc(N(C)C)cc2)CC1 (centres undefined) the Potency was “inactive”.
With CN(C(=O)c1cc2c(=O)n3ccccc3nc2s1)C1CCCCC1 the Potency was inconclusive: 4.11 µM [cytotoxic, partial curve].
For Cc1ccc(-c2csc3ncn(CC(=O)O)c(=O)c23)cc1C, the Potency was inconclusive: 23.1 µM [rising, single point].
For Cc1ccc2oc(C(=O)NCc3ncc(C)[nH]3)c(C)c2c1, the Potency was inconclusive: 11.6 µM [cytotoxic, single point].
For O=C(Cn1ncc2c3ccccc3n(Cc3ccccc3F)c2c1=O)NCC1CCCO1 (centres undefined), the Potency was “inactive”.
With CC(C)(C)NC(=O)CN1C(=O)NC(c2ccccc2)(c2ccccc2)C1=O the Potency was inconclusive: 20.6 µM [rising, single point].
For CCN(CC)Cc1c(C(=O)OC)nnn1-c1nonc1N, the Potency was inconclusive: 9.2 µM [rising, partial curve, poor fit].
